# Measured values reported in publication PMC3670934.
# The chains behind the UniProt entries cited, without tags or fusion partners. Residues count along the entry.
# UniProt P51677: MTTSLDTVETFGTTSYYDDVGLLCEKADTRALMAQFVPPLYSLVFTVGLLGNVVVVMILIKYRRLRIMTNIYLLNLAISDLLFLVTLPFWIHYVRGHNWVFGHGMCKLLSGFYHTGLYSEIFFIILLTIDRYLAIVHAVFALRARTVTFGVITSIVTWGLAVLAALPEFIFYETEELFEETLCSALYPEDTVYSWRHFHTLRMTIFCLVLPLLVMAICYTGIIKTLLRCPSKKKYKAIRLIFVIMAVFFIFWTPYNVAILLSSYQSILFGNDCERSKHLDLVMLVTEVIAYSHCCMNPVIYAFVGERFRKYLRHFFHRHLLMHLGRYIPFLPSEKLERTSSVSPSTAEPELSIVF
# UniProt P48061, residues 22-93: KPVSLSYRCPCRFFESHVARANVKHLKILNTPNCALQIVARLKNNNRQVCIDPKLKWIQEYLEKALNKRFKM
# These are yes or no findings as the source states them, for the method shown.
# Target: Human chemokine receptor CCR3 with a C-terminal 10-His tag (human) (UniProt P51677)
# Experiment: SPR; Biacore T100; His-tagged hCCR3 immobilised on a Ni-activated NTA sensor chip, chemokine flowed at 30 µl/min; 25°C; 10 mM HEPES, 0.15 M NaCl, 0.1% (wt/vol) DDM, pH 7.4; hCCR3 purified in DDM; 1:1 binding model, KD = kd/ka; both purified
substance,measurement,value
commercial recombinant human CXCL12 (PeproTech) (from UniProt P48061 22-93) (ligand),binding,no binding
